Drawing on patent publication US20250129143A1, this text covers binding for 2 molecules.

These are yes or no findings as the source states them, for the method shown. Some entries that bind do so weakly or less than the wild type. Sequences can lack the tags named with a protein.

The target of this experiment is biotinylated ubiquitin (human-derived ubiquitin with C-terminal Cys residue and 6xHis tag, biotin on the Cys) (human) (UniProt P0CG48). The experiment in a line: BLI.

B1: anti-ubiquitin monobody clone E, Monobody-Nus tag-His6 recombinant protein (designed binder, not shown: small tags and cut ends)
chain: LEVVEASPTSIQISWDANIYSVGQGEYVRYYRITYGETGGNSPVQEFTVPGSKSTATISGLKPGVDYTITVYAVTEYSYMYWGWPPISINYRTHHHHHH
For the molecule B1, the binding result is “binds”.

B2: anti-ubiquitin monobody clone A, Monobody-Nus tag-His6 recombinant protein (designed binder, not shown: small tags and cut ends)
chain: LEVVEASPTSIQISWDAYPYYIIGETVRYYRITYGETGGNSPVQEFTVPGSKSTATISGLKPGVDYTITVYAVTYYGNAFWGWPPISINYRTHHHHHH
With B2, the binding entry is “binds”.
